Results are given in words; binding and its absence hold for the method and conditions named. In cells and extracts the contact can be indirect.

By UniProt entry, the sequences of proteins in these tests, tags left out. Residues count along the entry.
UniProt P35637, residues 1-359: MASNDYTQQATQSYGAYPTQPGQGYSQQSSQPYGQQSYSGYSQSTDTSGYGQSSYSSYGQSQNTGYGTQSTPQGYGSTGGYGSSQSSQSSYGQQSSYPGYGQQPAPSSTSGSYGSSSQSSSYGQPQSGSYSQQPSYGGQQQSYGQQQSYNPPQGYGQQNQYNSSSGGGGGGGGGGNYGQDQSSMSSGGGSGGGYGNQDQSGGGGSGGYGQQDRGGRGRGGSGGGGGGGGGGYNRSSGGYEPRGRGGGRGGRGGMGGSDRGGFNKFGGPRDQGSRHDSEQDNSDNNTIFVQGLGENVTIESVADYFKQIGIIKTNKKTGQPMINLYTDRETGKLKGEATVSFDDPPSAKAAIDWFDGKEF

We go through two molecules from publication PMC3976330.

Assay [1] deals with GFP-tagged N-terminal fragment of FUS (aminoacids 1–359) (human) (UniProt P35637). As to the kind of experiment: co-IP; GFP-tagged protein precipitated from lysates of SH-SY5Y cells 24 h after transfection (untreated or treated with actinomycin D) with anti-GFP antibody (clone 3A9) and ProteinA/G sepharose beads or GFP-Trap agarose beads, 2 h at 4°C, PBS/1% Triton X-100; western blot for p54nrb/NONO. On the technique in general: Immunoblotting shows a protein as a band on a membrane.

Assay [2] has as its target GFP-tagged full-length TDP-43 (human), Q13148. The assay is described as above. As to conditions: remark: other sources report otherwise.

B1: endogenous p54nrb/NONO of SH-SY5Y cells (protein, UniProt Q15233 1-471)
chain: MQSNKTFNLEKQNHTPRKHHQHHHQQQHHQQQQQQPPPPPIPANGQQASSQNEGLTIDLKNFRKPGEKTFTQRSRLFVGNLPPDITEEEMRKLFEKYGKAGEVFIHKDKGFGFIRLETRTLAEIAKVELDNMPLRGKQLRVRFACHSASLTVRNLPQYVSNELLEEAFSVFGQVERAVVIVDDRGRPSGKGIVEFSGKPAARKALDRCSEGSFLLTTFPRPVTVEPMDQLDDEEGLPEKLVIKNQQFHKEREQPPRFAQPGSFEYEYAMRWKALIEMEKQQQDQVDRNIKEAREKLEMEMEAARHEHQVMLMRQDLMRRQEELRRMEELHNQEVQKRKQLELRQEEERRRREEEMRRQQEEMMRRQQEGFKGTFPDAREQEIRMGQMAMGGAMGINNRGAMPPAPVPAGTPAPPGPATMMPDGTLGLTPPTTERFGQAATMEGIGAIGGTPPAFNRAAPGAEFAPNKRRRY
Regarding B1, the binding entry in assay [1] is “no binding”.

B2: endogenous p54nrb/NONO of SH-SY5Y cells, Q15233 1-471 (protein)
chain: MQSNKTFNLEKQNHTPRKHHQHHHQQQHHQQQQQQPPPPPIPANGQQASSQNEGLTIDLKNFRKPGEKTFTQRSRLFVGNLPPDITEEEMRKLFEKYGKAGEVFIHKDKGFGFIRLETRTLAEIAKVELDNMPLRGKQLRVRFACHSASLTVRNLPQYVSNELLEEAFSVFGQVERAVVIVDDRGRPSGKGIVEFSGKPAARKALDRCSEGSFLLTTFPRPVTVEPMDQLDDEEGLPEKLVIKNQQFHKEREQPPRFAQPGSFEYEYAMRWKALIEMEKQQQDQVDRNIKEAREKLEMEMEAARHEHQVMLMRQDLMRRQEELRRMEELHNQEVQKRKQLELRQEEERRRREEEMRRQQEEMMRRQQEGFKGTFPDAREQEIRMGQMAMGGAMGINNRGAMPPAPVPAGTPAPPGPATMMPDGTLGLTPPTTERFGQAATMEGIGAIGGTPPAFNRAAPGAEFAPNKRRRY
In the case of B2, the binding result in assay [2] is given as “no binding”.
